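A cell-free homogeneous FRET test of compounds that break up the RanGTP-importin-beta complex, measured as the yellow-to-cyan fluorescence ratio after a short room-temperature incubation.
The test concentration is not given here.
Percent inhibition of the FRET ratio, where 0% matches DMSO wells and 100% matches Ran loaded with GDP; a higher value means stronger disruption of the complex.
A compound is called inconclusive when exactly half of its replicate wells pass the activity cutoff, active when more than half pass, and inactive when fewer than half pass.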

Values are in %.
Every entry below has the call inconclusive.
Only part of the assay is shown, chiefly results filed as inconclusive.

Compound,inhibition (%)
CN(C)CCCN(C(=O)c1ccc(S(=O)(=O)N(C)C2CCCCC2)cc1)c1nc2ccc(F)cc2s1,7.627
CN1CCNC(=O)C1CC(=O)NCCc1ccccc1F (stereo not drawn),17.48
CC(C)c1cc(CNC(=O)CCc2nnc(CCCc3ccccc3)o2)on1,9.394
CCOC(=O)C1=C(COCCN)NC(C)=C(C(=O)OC)C1c1ccccc1Cl (stereo not drawn),10.89
CCNC(=O)CC1C(=O)N(c2cccc(C)c2)C(=O)N1CCC(C)C (stereo not drawn),15.53
CC(=O)C1=C(O)C(=O)N(CCC(=O)O)C1c1ccc(Cl)cc1Cl (stereo not drawn),10.56
CC(C)(C)NC(=O)CN(C(=O)CCN1CCCc2ccccc21)C(C)(C)C,8.766
O=C1Nc2ccc(S(=O)(=O)N3CCCC3C(=O)O)c3cccc1c23 (stereo not drawn),11.11
Cc1nc2ccc(Br)cc2c(-c2ccccc2)c1C(=O)O,9.609
CN1C(=O)/C(=C/c2cccc(Cl)c2)Sc2ccc(C(=O)N3CCCC3)cc21,7.295
C[C@H]1c2cccc(O)c2C(O)=C2C(=O)[C@]3(O)C(O)=C(C(N)=O)C(=O)[C@@H](N(C)C)[C@@H]3[C@@H](O)[C@@H]21,12.33
CN(C)CCN(C(=O)c1ccc(S(=O)(=O)N(C)C)cc1)c1nc2cc3c(cc2s1)OCCO3,19.3
FC(F)(F)c1ccc(-c2nc(=S)[nH][nH]2)cc1,13.21
COc1cc2c3c(c1)/C(=C1/SC(NC(C)=O)=NC1=O)C(=O)N3C(C)(C)C=C2C,4.165
CN(C)CCCN(C(=O)c1ccc(S(=O)(=O)N2CCOCC2)cc1)c1nc2ccc(F)cc2s1,57.83
NC(=O)N1c2ccccc2C=Cc2ccccc21,7.752
COCCN1CCN(Cc2nc(C3(c4ccc(C)cc4)CCCC3)no2)CC1,11.34
CCS(=O)(=O)n1c(Cc2cccs2)nc2ccccc21,12.52
O=S(=O)(Cc1cccc(C(F)(F)F)c1)c1ncn[nH]1,8.166
Cc1nnc(SCC2=C(C(=O)O)N3C(=O)C(NC(=O)Cn4ncc(Cl)c4C)C3SC2)s1 (stereo not drawn),8.655
COC(=O)c1cc(C#N)c(OC)nc1C,20.41
O=C1C=C(NNC(=O)c2cccnc2)CC(c2ccco2)C1 (stereo not drawn),13.61
O=C(O)c1cccc(N/N=C/C2=C(Cl)c3cc(Cl)ccc3SC2)c1,8.198
CCCC(CCC)C(=O)O,8.06
O=C(NC1CCCC1)c1cnn2c(C(F)(F)F)cc(-c3ccco3)nc12,13.35
CSc1cccc(NC(=O)CCNC(=O)c2ccco2)c1,10.09
Cc1ccc(-c2csc3ncnc(Oc4cccc5ccc(C)nc45)c23)cc1,8.693
CN1CCN(C(=O)/C(=C/c2ccc(F)cc2)c2ccsc2)CC1,9.476
O=C(COC(=O)/C=C/c1cccs1)Nc1ccccc1Cl,12.84
S=c1[nH]nc(-c2ccccc2Cl)n1Cc1ccccc1,10.72
Cc1cc(=O)[nH]c(CN2CCOCC2)n1,13.48
COc1cc(C(=S)N2CCOCC2)cc(OC)c1OC,47.01
COC(=O)C1=C(C)N(C)C(=O)NC1c1c(OC)ccc2ccccc12 (stereo not drawn),11.92
CCCNC(=S)N1CCN(c2nc(C)nc3sc4c(c23)CCCC4)CC1,7.853
CCc1c(C)nc(SCC(=O)Nc2nc(-c3ccc(OC)cc3)cs2)[nH]c1=O,7.106
CCOC(=O)c1ccc(NC(=O)CSc2nc3sc(C(=O)O)c(C)c3c(=O)[nH]2)cc1,7.837
CC1CCCCN1c1ccc(N)cc1C(N)=O (stereo not drawn),9.435
COCCCNC(=O)Cn1cc(/C=C2\C(=O)NC(=O)N(c3ccccc3F)C2=O)c2ccccc21,10.09
O=C(N/N=C/c1cn(-c2cccs2)nc1-c1ccccc1)c1ccccc1O,14.2
CC(C)c1ccccc1OCCCCCN1CCOCC1,18.08
O=C(Nc1c(Cl)ccc2nsnc12)c1ccco1,11.87
Cc1cc(OC(=O)c2ccc(S(=O)(=O)N3CCCC3)cc2)c([N+](=O)[O-])c(=O)[nH]1,10.6
COc1ccc(CNC(=O)c2cc3c(=O)n4ccccc4nc3n(CC3CCCO3)c2=N)cc1 (stereo not drawn),17.65
CCOC(=O)N1CCC(NCCNC(=O)c2ccco2)CC1,9.164
CCCN1C(=O)/C(=C/c2ccc3c(c2)OCO3)NC1=S,15.63
CCc1ccc2nc(N(CCCN(C)C)C(=O)c3ccc(S(=O)(=O)N4CCCC4)cc3)sc2c1,10.21
CC/C(=C(\c1ccc(O)cc1)c1ccc(OCCN(C)C)cc1)c1ccccc1,9.448
CCC(CC)C(=O)OCC(=O)NC12CC3CC(CC(C3)C1)C2,10.67
Cc1cc(C)nc(/N=C(\N)Nc2ccc(S(=O)(=O)Nc3nccc(C)n3)cc2)n1,16.35
O=C(Nc1ccc(F)cc1)Nc1ccccc1NS(=O)(=O)c1cccs1,12.3
COCCNc1c(-c2ccc(O)cc2)nc2ccc(Cl)cn12,7.133
COc1ccc(C(=O)Nc2ccc(C3(C#N)CCCC3)cc2)cc1,10.09
Cc1nnc(C)n1/N=C/c1cc(Br)ccc1O,8.093
O=C1N/C(=N/O)S/C1=C/c1cccc([N+](=O)[O-])c1,20.36
Cn1nnnc1SCc1ccc(C(=O)Nc2nccs2)cc1,9.353
COc1ccc(-c2oc3c(CC=C(C)C)c(O[C@@H]4O[C@H](CO)[C@@H](O)[C@H](O)[C@H]4O)cc(O)c3c(=O)c2O[C@@H]2O[C@@H](C)[C@H](O)[C@@H](O)[C@H]2O)cc1,16.4
CCOc1ccc(OCCC(=O)N2CCc3cc(OC)c(OC)cc3C2)cc1,7.795
Cc1cc(C(=O)CSc2nnc(-c3ccccc3)n2Cc2ccc3c(c2)OCO3)c(C)n1C,11.93
COc1ccc(C(=O)Nc2ccc(NC(=O)c3cccs3)cc2)cc1Cl,15.71
NS(=O)(=O)c1ccc(-c2ccc(/C=C3\SC(=O)NC3=O)o2)cc1,15.46
COc1ccccc1NC(=S)NCCc1ccc(S(N)(=O)=O)cc1,12.3
CCc1ccccc1NS(=O)(=O)c1cc(C)ccc1OC,7.094
C/C(CC(=O)Nc1cccc(F)c1)=N\NC(=O)C(=O)NC1CCCCC1,13.3
Cc1nonc1C1CCCN1Cc1nc(-c2ccc(F)cc2F)oc1C (stereo not drawn),8.656
Cc1ccc(C(=O)c2cc(C)sc2N)cc1,11.42
CCOc1ccc2nc3sc(C(=O)N4CCN(C)CC4)c(N)c3cc2c1,13.23
CCCCCc1ccc(-c2nnc(N)s2)cc1,13.65
CN1C2CCC1CC(OC(=O)c1c[nH]c3ccccc13)C2 (stereo not drawn),13.83
COc1ccc(/C=C(\C#N)C(=O)OCC(=O)NCc2ccccc2)cc1,15.55
O=C(CSc1nc2ccccc2c(=O)n1-c1ccc(SC(F)F)cc1)Nc1ccc(N2CCOCC2)cc1,10.26
Nn1c(SCC(=O)NCc2ccccc2)nnc1C1CC1,10.23
COc1ccc(-c2cc(C(F)(F)F)n3nc(C(=O)N4CCCCC4)cc3n2)cc1,15.06
CC1Cc2ccccc2N1C(=O)CSc1nnc2n1C(C)(C)Cc1ccccc1-2 (stereo not drawn),20.5
Cc1cc(Oc2ccc(=O)n(C)n2)nc(SCc2ccccc2)n1,15.82
Cc1cccc(NC(=O)Nc2ccc3c(c2)OCO3)n1,13.85
CNS(=O)(=O)Cc1ccc2[nH]cc(CCN(C)C)c2c1,12.11
O=C(Cc1ccc([N+](=O)[O-])cc1)Nc1cccc(C(F)(F)F)c1,17.71
CCc1ccccc1N1CC(C(=O)O)CC1=O (stereo not drawn),14.97
O=C(NCc1ccco1)C1CCN(c2ccc(N3CCOCC3)nn2)CC1,15.35

From PubChem BioAssay record AID2216 (Broad Institute, 2009).